From PubChem BioAssay AID298 (DTP/NCI, 2004)
The list does not hold the whole screen: it is rich in T/C values a quarter to a half above the control, in often repeated tests (any T/C) and in doses without a T/C. Further doses and runs are listed elsewhere. T/C is the treated group as % of the vehicle group. Schedules are NCI's codes, read here as Q, the interval in days (D) or hours (H), X, the number of doses. Some T/C values are followed by the survivors on the day toxicity was checked, most often the fifth; where none is given, no animal had died by that day. Some T/C values are negative: the treated tumours shrank. Some entries hold several experiments; their values stand side by side, smallest first. Some entries give survivors of the animals treated and no T/C: the source files T/C as zero there, which appears to mark a toxic dose or a test without result, not a measured value. Counts of survivors are from the toxicity check (mostly the fifth day) where no day follows; animals may have died later. Some molecules as drawn cover several salts, stereoisomers or complexes of the source; a dose is that of the sample tested.

Test system: MX-1 breast xenograft, intrarenal, nude mice, tumor weight
Assay: NCI In Vivo Anticancer Drug Screen. Data for tumor model Human Mammary Carcinoma MX-1 Xenograft (intrarenal inoculation) in NU/NU BALB/C (nude) mice
Conditions: T/C endpoint: mean tumor weight change, higher T/C = larger tumour; for T/C: evaluated on day 11
Summary of the method: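 Transplantable tumors established in mice; animals dosed with compound or vehicle; survival or tumor size then recorded. Result reported as treated (T) divided by vehicle control (C).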

[1] = dose: 4.0 mg/kg/injection, schedule: Q04DX003 (ip), vehicle: saline
[2] = dose: 8.0 mg/kg/injection, schedule: Q04DX003 (ip), vehicle: saline
[3] = dose: 150.0 mg/kg/injection, schedule: Q04DX003 (ip), vehicle: water
[4] = dose: 300.0 mg/kg/injection, schedule: Q04DX003 (ip), vehicle: saline with Tween-80

COc1cc([C@@H]2c3cc4c(cc3[C@@H](OC3OC5COC(C)OC5C(O)C3O)[C@H]3COC(=O)[C@H]23)OCO4)cc(OC)c1O (stereo not given in full) was tested, and the survivor count (dose: 32.0 mg/kg/injection, schedule: Q01DX010 (ip), vehicle: saline) was 0 of 6 on day 11 and the survivor count (dose: 64.0 mg/kg/injection, schedule: Q04DX003 (ip), vehicle: saline) was 0 of 6 on day 11 and 2 of 5 on day 11.

With O=[N+]([O-])c1nccn1CC(O)CO (stereo not given) the T/C (dose: 1200.0 mg/kg/injection, schedule: Q04DX004 (sc), vehicle: saline) was 129 % of control.

In the case of Cc1cc(=NO)cc(C)n1O, the T/C (dose: 600.0 mg/kg/injection, schedule: Q04DX003 (sc), vehicle: distilled water + alcohol) is reported as 127 % of control.

With COc1oc(C2C/C(=C/C(C)=C/C(C)=C/C(C)=C/c3ccc([N+](=O)[O-])cc3)CO2)c(C)c(=O)c1C (stereo not given) the survivor count [1] was 3 of 6 on day 11 and the survivor count [2] was 1 of 6 on day 11.

With CCCCCCCCCCCCCCCCP(=O)(OCCOCCCCCC)OCCOCCCCCC the survivor count (dose: 1200.0 mg/kg/injection, schedule: Q04DX003 (sc), vehicle: saline) was 0 of 6 on day 11.

For CN1CCN(CN2C(=O)C3C4C=CC(C3C2=O)C2C3C(=O)N(CN5CCN(C)CC5)C(=O)C3C42)CC1 (stereo not given), the survivor count (dose: 150.0 mg/kg/injection, schedule: Q04DX003 (ip), vehicle: other) was 0 of 6 on day 11, the survivor count [3] was 2 of 6 on day 11 and the survivor count (dose: 200.0 mg/kg/injection, schedule: Q04DX003 (ip), vehicle: water) was 0 of 6 on day 11. For the same compound, the survivor count (dose: 300.0 mg/kg/injection, schedule: Q04DX003 (ip), vehicle: other) was 0 of 6 on day 11, the survivor count (dose: 300.0 mg/kg/injection, schedule: Q04DX003 (ip), vehicle: water) was 0 of 6 on day 11 and the survivor count (dose: 600.0 mg/kg/injection, schedule: Q04DX003 (ip), vehicle: other) was 0 of 6 on day 11. For the same compound, the survivor count (dose: 600.0 mg/kg/injection, schedule: Q04DX003 (ip), vehicle: water) was 0 of 6 on day 11.

For CC(=O)c1c(O)c(C)c(O)c2c1OC1=CC(=O)C(C(C)=O)C(=O)C12C (stereo not given), the T/C (dose: 100.0 mg/kg/injection, schedule: Q01DX010 (sc), vehicle: sodium bicarbonate) was 128 % of control and the survivor count (dose: 800.0 mg/kg/injection, schedule: Q01DX010 (sc), vehicle: sodium bicarbonate) was 0 of 3 on day 11.

For CSCCC(N)C(=O)O (stereo not given), the T/C [4] was 129 % of control.

With O=C(Nc1ccccc1)c1c(O)[nH]c(=O)[nH]c1=O the survivor count (dose: 800.0 mg/kg/injection, schedule: Q04DX003 (ip), vehicle: saline with Tween-80) was 0 of 6 on day 11.

In the case of NC(=S=O)C(N)=S=O, the survivor count (dose: 1000.0 mg/kg/injection, schedule: Q04DX003 (ip), vehicle: saline with Tween-80) is reported as 3 of 6 on day 11.

In the case of COc1cc2oc3c(C)c(=O)cc4oc(-c5ccccc5)cc(c2c2c1CCC(c1ccccc1)O2)c43 (stereo not given), the T/C (dose: 7.0 mg/kg/injection, schedule: Q04DX003 (ip), vehicle: Klucel (hydroxypropylcellulose) (HPC)) is reported as 137 % of control [5 of 6 alive on day 11] and the survivor count (dose: 14.0 mg/kg/injection, schedule: Q04DX003 (ip), vehicle: Klucel (hydroxypropylcellulose) (HPC)) is reported as 2 of 4 on day 11.

For CS(=O)(=O)CS(=O)(=O)OCCCl, the survivor count (dose: 300.0 mg/kg/injection, schedule: Q04DX003 (sc), vehicle: suspension in saline) was 0 of 6 on day 11, the survivor count (dose: 461.11 mg/kg/injection, schedule: Q04DX003 (ip), vehicle: dextrose) was 3 of 6 on day 11 and the survivor count (dose: 461.11 mg/kg/injection, schedule: Q04DX003 (ip), vehicle: other) was 3 of 6 on day 11.

With COc1cc2c(c(OC)c1OC)-c1ccc(OC)c(=O)cc1[C@@H](NC(C)=O)CC2 the survivor count [1] was 0 of 6 on day 11 and 1 of 6 on day 11 and the survivor count [2] was 0 of 6 on day 11.

With CC1Oc2cc3c(-c4c(O)cc(O)c5c(O)c6c(cc45)OC(C)C(C)C6=O)c(O)cc(O)c3c(O)c2C(=O)C1C (stereo not given) the T/C (dose: 3.0 mg/kg/injection, schedule: Q04DX003 (ip), vehicle: suspension in saline) was 142 % of control and the T/C (dose: 6.0 mg/kg/injection, schedule: Q04DX003 (ip), vehicle: suspension in saline) was 142 % of control.

CC1[C@@H]2CC=C3[C@H]4CCC5Cc6nc7c(nc6C[C@@]5(C)C4CC(=O)[C@]32CO[C@]12OC(C)(C)CC2O)CC1CC[C@@H]2C3=C[C@H]4O[C@@]5(O[C@@](C)(CO)C[C@@H]5O)C(C)[C@@]4(O)[C@]3(C)[C@@H](O)CC2[C@]1(C)C7 (stereo not given in full) was tested, and the survivor count (dose: 200.0 micrograms/kg/injection, schedule: Q04DX003 (ip), vehicle: saline + alcohol) was 3 of 6 on day 11.

For NC(=O)SCC(N)C(=O)O (stereo not given), the survivor count (dose: 1100.0 mg/kg/injection, schedule: Q04DX003 (sc), vehicle: saline) was 0 of 6 on day 11, the survivor count (dose: 1200.0 mg/kg/injection, schedule: Q04DX003 (ip), vehicle: saline) was 1 of 6 on day 11 and the survivor count (dose: 1350.0 mg/kg/injection, schedule: Q04DX003 (sc), vehicle: saline) was 0 of 6 on day 11. The survivor count (dose: 2400.0 mg/kg/injection, schedule: Q04DX003 (ip), vehicle: saline) was 0 of 6 on day 11.

With CCOC(=O)[C@]1(Br)CC[C@@]1(Br)C(=O)OCC the survivor count (dose: 2400.0 mg/kg/injection, schedule: Q04DX003 (sc), vehicle: saline with Tween-80) was 1 of 6 on day 11.

S=C(N/N=C1/CCCC/C1=N/NC(=S)N1CCOCC1)N1CCOCC1 was tested, and the T/C (dose: 3.12 mg/kg/injection, schedule: Q04DX003 (ip), vehicle: saline with Tween-80) was 132 % of control, the survivor count (dose: 37.5 mg/kg/injection, schedule: Q04DX003 (ip), vehicle: saline with Tween-80) was 1 of 6 on day 11 and the survivor count (dose: 75.0 mg/kg/injection, schedule: Q04DX003 (ip), vehicle: saline with Tween-80) was 0 of 6 on day 11. For the same compound, the survivor count (dose: 150.0 mg/kg/injection, schedule: Q04DX003 (ip), vehicle: saline with Tween-80) was 0 of 6 on day 11 and the survivor count [4] was 0 of 6 on day 11.

COc1cccc2c1C(=O)C1=C(C2=O)c2c(O)cc(CO)cc2C(O)C1O (stereo not given) was tested, and the survivor count (dose: 50.0 mg/kg/injection, schedule: Q04DX003 (ip), vehicle: other) was 3 of 5 on day 11 and the survivor count (dose: 100.0 mg/kg/injection, schedule: Q04DX003 (ip), vehicle: other) was 0 of 5 on day 11.

For COc1cccc2c1[C@H]1CO[C@H]3C4C[C@H](C(=O)O)C([C@@H](C2)N13)N4C (stereo not given in full), the survivor count (dose: 60.0 mg/kg/injection, schedule: Q04DX003 (ip), vehicle: water) was 1 of 6 on day 11.

For NCCCN=c1ccc2c3c1c(O)c1c(O)ccc(=O)c1c3[nH]n2CCNCCO, the survivor count (dose: 75.0 mg/kg/injection, schedule: Q04DX003 (ip), vehicle: water) was 0 of 6 on day 11 and the survivor count [3] was 0 of 6 on day 11.

In the case of COc1nc(C(Cl)(Cl)Cl)c(Cl)c(OC)c1Cl, the T/C (dose: 150.0 mg/kg/injection, schedule: Q04DX003 (ip), vehicle: Klucel (hydroxypropylcellulose) (HPC)) is reported as 1, 2, 6 [5 of 6 alive on day 11], 49 % of control, the T/C (dose: 300.0 mg/kg/injection, schedule: Q04DX003 (ip), vehicle: Klucel (hydroxypropylcellulose) (HPC)) is reported as -58 [5 of 6 alive on day 11], -18, 4, 13 % of control and the survivor count (dose: 600.0 mg/kg/injection, schedule: Q04DX003 (ip), vehicle: Klucel (hydroxypropylcellulose) (HPC)) is reported as 0 of 6 on day 11, 1 of 6 on day 11, 2 of 6 on day 11. The survivor count (dose: 900.0 mg/kg/injection, schedule: Q04DX003 (ip), vehicle: Klucel (hydroxypropylcellulose) (HPC)) was 0 of 5 on day 11 and the survivor count (dose: 1200.0 mg/kg/injection, schedule: Q04DX003 (ip), vehicle: Klucel (hydroxypropylcellulose) (HPC)) was 0 of 6 on day 11.

In the case of Oc1cc(O)cc(/C=C/c2ccc(O)c(O)c2)c1, the survivor count (dose: 200.0 mg/kg/injection, schedule: Q04DX003 (ip), vehicle: DMSO) is reported as 3 of 6 on day 11, the survivor count (dose: 300.0 mg/kg/injection, schedule: Q04DX003 (ip), vehicle: DMSO) is reported as 2 of 6 on day 11 and the survivor count (dose: 400.0 mg/kg/injection, schedule: Q04DX003 (ip), vehicle: DMSO) is reported as 0 of 6 on day 11.

For Nc1nc2ncn(O)c2c(=O)[nH]1, the survivor count (dose: 50.0 mg/kg/injection, schedule: Q04DX003 (ip), vehicle: water) was 2 of 6 on day 11 and the survivor count (dose: 100.0 mg/kg/injection, schedule: Q04DX003 (ip), vehicle: water) was 0 of 6 on day 11.

For O=S(=O)(CCl)OCCCl, the survivor count (dose: 200.0 mg/kg/injection, schedule: Q04DX003 (sc), vehicle: saline with Tween-80) was 0 of 6 on day 11.
